Counter-ions that a name gives are not always drawn. The list shows a part of the results. This data set is noisy: repeats of one test often differ as much as different tests do.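 The human kidney-derived cells carry a stably integrated construct of eight TEAD-binding elements driving luciferase, read by luminescence in a drug-repurposing library screen. A compound counts as a hit when its signal is more than five robust Z scores above the plate mean.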
Test system: HEK293A TEAD-LUC reporter
Assay: TEAD-luciferase reporter activity (YAP activation), robust Z score vs plate; higher = stronger YAP/TEAD activation
Details: 24 h

Row | Compound | TEAD-luciferase reporter activity (compound concentration: 200 nM) | TEAD-luciferase reporter activity (compound concentration: 2 uM) | TEAD-luciferase reporter activity (compound concentration: 10 uM)
1 | CCc1[nH]c(O)nc1C(=O)c1ccncc1 [piroximone] | inactive: -2.13 | inactive: 0.318 | inactive: -0.299
2 | C[N+](C)(C)CCOC(Cc1ccccc1)c1ccccc1 (centres undefined) | inactive: -1.49 | inactive: -0.949 | inactive: 1.15
3 | O=c1[nH]c2c(O)ccc(CCNCCS(=O)(=O)CCCOCCc3ccccc3)c2s1 [Sibenadet hydrochloride] | inactive: -1.09 | inactive: -1.43 | inactive: -1.53
4 | O=C(O)Cc1ccc2c(c1)SCc1ccccc1C2=O | inactive: -1.5 | inactive: 0.0507 | inactive: -0.941
5 | CCc1nc(C2CC2)c(C(N)=O)n1Cc1ccc2oc(-c3ccccc3NS(=O)(=O)C(F)(F)F)c(Br)c2c1 | inactive: -0.0517 | inactive: -1.67 | inactive: -1.33
6 | c1ccc(C23NC(=Nc4nc5ccccc5[nH]4)NC2(c2ccccn2)NC(=Nc2nc4ccccc4[nH]2)N3)nc1 (centres undefined) | inactive: -1.87 | inactive: 0.61 | inactive: -0.17
7 | COc1cccc(CS(=O)c2nc3ccncc3[nH]2)c1 (centres undefined) | inactive: -0.212 | inactive: -0.0702 | inactive: 0.376
8 | CCCCCCCCCCCCCCCCCCCCCCCCCCCCO | active: 5.56 | inactive: -2.51 | inactive: 0.758
9 | CCS(=O)(=O)c1ccc(F)cc1 | inactive: -1.86 | inactive: -0.938 | inactive: -0.275
10 | Cc1ccc(-c2cccc(CN3CCCC3C(=O)NCc3cccc(C(F)(F)F)c3)c2)cc1Cl (centres undefined) | inactive: -1.52 | – | inactive: 0.474
11 | CC(=O)NCC1CC(c2ccc(C3=CCN(C(C)=O)CC3)cc2)=NO1 (centres undefined) | inactive: 0.273 | inactive: -0.898 | inactive: -1
12 | CO[C@H]1/C=C/O[C@@]2(C)Oc3c(C)c(O)c4c(=O)c(c5oc6cc(N7CCN(CC(C)C)CC7)cc(O)c6nc-5c4c3C2=O)NC(=O)/C(C)=C\C=C\[C@H](C)[C@H](O)[C@@H](C)[C@@H](O)[C@@H](C)[C@H](OC(C)=O)[C@@H]1C [Rifalazil] | inactive: -1.43 | inactive: -0.703 | inactive: -0.525
13 | O=C(c1ccccc1Cl)N1CCC2(CC1)Cc1ccccc1NC2=O | inactive: -2.46 | – | inactive: 1.17
14 | Cc1cc(-c2cnn3c(NC[C@H]4C[C@@](C)(O)C4)cc(Oc4cccnc4)nc23)ccc1C(=O)NC1CC1 | inactive: -0.254 | inactive: -0.598 | inactive: 0.0467
15 | CO/N=C1/C=C(C#Cc2cccc(C)n2)CCC1 | inactive: 2.43 | inactive: 1.73 | inactive: 1.65
16 | CN1CCN(c2c(F)cc3c(=O)c(C(=O)O)cn4c3c2SCC4)CC1 [rufloxacin monohydrochloride] | inactive: -1.33 | – | inactive: -2.45
17 | CN1CCN(c2c(F)cc3c(=O)c(C(=O)O)cn4c3c2SCC4)CC1 [rufloxacin] | – | inactive: -2.05 | –
18 | COc1ccc2cc(-c3cc(-c4cc(Cl)cc(Cl)c4)nn3[C@@H](C)c3ccc(C(=O)NCCC(=O)O)cc3)ccc2c1 | inactive: -0.609 | inactive: -1.17 | inactive: 1.9
19 | CC(C)NCC(O)COc1ccc(CC(=O)OCCC23CC4CC(CC(C4)C2)C3)cc1 (centres undefined) [Adaprolol] | inactive: -1.02 | inactive: -0.537 | active: 6.66
20 | C[C@@H]1CC(=O)c2c(ccc3c2C(=O)c2cccc(O)c2C3=O)C1 [Ochromyci] | inactive: -1.4 | inactive: -0.256 | inactive: -0.512

Row | Compound | TEAD-luciferase reporter activity (compound concentration: 200 nM) | TEAD-luciferase reporter activity (compound concentration: 2 uM) | TEAD-luciferase reporter activity (compound concentration: 10 uM)
21 | C[C@H](O)C(=O)O [ammonium lactate] | inactive: 2.58 | inactive: -1.74 | inactive: 1.43
22 | O=C1CCc2ccc(OCCCCN3CCN(c4cccc5ccccc45)CC3)nc2N1 | inactive: -0.998 | inactive: -0.285 | inactive: 0.443
23 | COc1ccc2[nH]c(SCc3ncc(C)c(OC)c3C)nc2c1 [Ufiprazole] | inactive: -1.41 | inactive: -0.162 | inactive: 4.55
24 | CCCC(CCC)c1ccc(OCc2ccc(-c3csc(CN(CC(=O)O)Cc4ncc(C(C)(C)C)s4)n3)cc2)cc1 | inactive: 0.801 | inactive: 1.05 | inactive: 4.16
25 | COc1ccc(F)cc1-c1cc2c(N=O)c(O)[nH]c2c2c1CCN(C)C2 | inactive: 0.508 | inactive: -0.959 | inactive: 1.88
26 | [Cl][Ru-2]([Cl])([Cl])([Cl])([Cl])[Cl] | inactive: 2.86 | – | inactive: 4.35
27 | CCCc1nc(C(C)(C)O)c(C(=O)OCc2oc(=O)oc2C)n1-c1ccc(-c2ccccc2-c2nnn[nH]2)cc1 | inactive: -0.792 | inactive: -0.762 | inactive: -0.457
28 | CCCCC(=O)C1c2cccc(O)c2C(=O)c2c(O)cccc21 | inactive: 0.393 | inactive: -1.22 | inactive: 0.668
29 | N#Cc1ccc(Oc2ccc3c(c2)COB3O)cc1C#N | inactive: -0.422 | inactive: -0.79 | inactive: -0.408
30 | CCCCCC(=O)N[C@@H](Cc1ccc(O)cc1)C(=O)OC | inactive: -1.88 | inactive: 0.0137 | inactive: -2.31
31 | Nc1ncnc2c1ncn2[C@@H]1C[C@H](O)[C@H](CO)O1 [beta-L-dA] | inactive: -0.94 | inactive: -1.24 | inactive: 0.302
32 | CCC(=O)Nc1c(C)cc(C(=O)N2CCC(N(C)CCc3ccccc3)CC2)cc1C | inactive: -1.4 | inactive: 3.76 | active: 8.13
33 | O=C(O)c1ccccc1 | inactive: 0.0562 | inactive: -1.41 | inactive: 1.23
34 | CN(C)C(=O)CCSC(SCCC(=O)O)c1cccc(C=Cc2ccc3ccc(Cl)cc3n2)c1 (centres undefined) | inactive: -0.513 | inactive: 0.869 | active: 5.11
35 | CC(=O)[C@H]1CCC2C3CC=C4C[C@@H](O)CC[C@]4(C)C3CC[C@@]21C (some centres undefined) [pregnenolone, Mattern] | inactive: 0.62 | inactive: -0.676 | inactive: 0.426
36 | O=C(O)C[C@@H]1NC(=O)CNC1=O | inactive: 0.434 | inactive: 1.53 | inactive: 0.21
37 | Cc1nc(-c2ccc(OCCCCCOc3ccc(/C(N)=N/O)cc3)cc2)c(C(C)C)s1 | inactive: -0.712 | inactive: 0.528 | inactive: -1.37
38 | Nc1ccc2c(c1)CN1C(=O)c3ccccc3C1=N2 | inactive: 0.0732 | inactive: -2.8 | inactive: -2.42
39 | CC(C)C(=O)NCCNCC(O)COc1ccccc1 (centres undefined) | inactive: -2.01 | inactive: -0.724 | inactive: -0.208
40 | COc1cccc(/C=C/c2nc3sccn3c(=O)c2-c2ccc(OC(F)(F)F)cc2)c1OCC1CC1 | inactive: 0.0235 | inactive: -1.08 | inactive: -0.505

Already shown: an excerpt of the list.
Row | Compound | TEAD-luciferase reporter activity (compound concentration: 200 nM) | TEAD-luciferase reporter activity (compound concentration: 2 uM) | TEAD-luciferase reporter activity (compound concentration: 10 uM)
34 | CN(C)C(=O)CCSC(SCCC(=O)O)c1cccc(C=Cc2ccc3ccc(Cl)cc3n2)c1 (centres undefined) | inactive: -0.513 | inactive: 0.869 | active: 5.11
35 | CC(=O)[C@H]1CCC2C3CC=C4C[C@@H](O)CC[C@]4(C)C3CC[C@@]21C (some centres undefined) [pregnenolone, Mattern] | inactive: 0.62 | inactive: -0.676 | inactive: 0.426
36 | O=C(O)C[C@@H]1NC(=O)CNC1=O | inactive: 0.434 | inactive: 1.53 | inactive: 0.21

Further records follow.

Row | Compound | TEAD-luciferase reporter activity (compound concentration: 200 nM) | TEAD-luciferase reporter activity (compound concentration: 2 uM) | TEAD-luciferase reporter activity (compound concentration: 10 uM)
41 | OC[C@@]1(O)OC[C@@H](O)[C@@H](O)[C@@H]1O [Tagatose] | inactive: 0.318 | inactive: -2 | inactive: 0.634
42 | CC1=NN(c2ccccc2)C(=O)C1 | – | inactive: -1.58 | –
43 | CC1=NN(c2ccccc2)C(=O)C1 [edaravone] | inactive: -0.583 | inactive: 0.268 | inactive: 0.441
44 | O=C([O-])c1nc(=O)[nH]c(=O)[nH]1 [Oteracil potassium] | inactive: -0.221 | – | inactive: 0.711
45 | CCCCCCCCCCCCC(C#N)(CCCN(C)CCc1ccccc1)c1ccccc1 (centres undefined) | inactive: 1.16 | inactive: -0.594 | inactive: -1.38
46 | O=C(CC1CCN(CCn2c(=O)[nH]c3ccccc3c2=O)C1)c1ccc(F)cc1 (centres undefined) | inactive: -0.839 | inactive: -0.186 | inactive: 1.9
47 | Nc1ccc2c(c1)C(=O)NC(CCCl)O2 (centres undefined) | inactive: -1.66 | inactive: -0.577 | inactive: -1.95
48 | CC[N+](CC)(CC)CCOc1cccc(OCC[N+](CC)(CC)CC)c1OCC[N+](CC)(CC)CC [Gallamine triethiodide (Flaxedil)] | inactive: -1.91 | inactive: 1.09 | inactive: 0.976
49 | CS(=O)(=O)c1cccc(C[C@H](NC(=O)c2c(Cl)cc3c(c2Cl)CCN(C(=O)c2ccc4ccoc4c2)C3)C(=O)O)c1 [lifitegrast] | inactive: 2.78 | inactive: -0.104 | inactive: -1.24
50 | COc1ccc(OC2CN(Cc3ccc(C(F)(F)F)cc3)C2)cc1 | inactive: -0.463 | – | inactive: -0.0388
51 | Cc1cnc2c(c1)nc(C1CCCCC1)n2Cc1ccc(C(=O)O)cc1 | inactive: -0.804 | inactive: -0.838 | inactive: -1.03
52 | Cc1cc(C)cc(-c2ccc(CN3CCCC3C(=O)NCC3CC3)cc2)c1 (centres undefined) | inactive: -2.51 | – | inactive: 0.605
53 | O=C1CC2(CCCC2)CC(=O)N1CCNCC1COc2ccccc2O1 (centres undefined) [Binospirone mesylate] | – | inactive: 0.885 | –
54 | O=C1CC2(CCCC2)CC(=O)N1CCNCC1COc2ccccc2O1 (centres undefined) | inactive: 2.48 | – | inactive: 1.43
55 | CCCCOC(=O)C(=O)Nc1cccc(-c2nnn[nH]2)c1 | inactive: -1.55 | inactive: -1.24 | inactive: -0.288
56 | CN(NC(=O)c1ccc(Cl)c(S(N)(=O)=O)c1)c1ccccc1 [metipamide] | inactive: -0.843 | inactive: 0.098 | inactive: 1.1
57 | Cc1cc(C)c2cccc(OCc3c(Cl)ccc(S(=O)(=O)N4CCC[C@H]4C(=O)NCCCNC(=O)c4ccc(C(=N)N)cc4)c3Cl)c2n1 | inactive: -0.425 | inactive: -0.194 | inactive: 1.45
58 | O=C1NCc2ccccc2CC12CCCN2Cc1ccc(F)cc1F (centres undefined) | inactive: 0.322 | – | inactive: 0.556

Reference: the supplement of paper PMC10735217
